A negative result means that nothing was seen under these conditions. At least one verdict rests on a figure or table, not on a statement of the authors. For part of these data: Where a protein sequence is shown, tags need not be part of it.
Key:
Experiment in all cases: sandwich SERRS lateral-flow assay
[1] = molecular target: heart-type fatty acid-binding protein (h-FABP) (UniProt P05413); details: 0.1 ng/ml, signal above CRP and BNP but in background range, running buffer PBS with 0.25% Tween, sample pad pretreated with 0.05 M Tris pH 7.6, 0.15 M NaCl, 0.25% Triton X-100, assay temperature not stated, commercial protein, single-stranded DNA
[2] = molecular target: T1, C-reactive protein (CRP) (UniProt P02741); details: 0.1 ng/ml, signal in background range, running buffer PBS with 0.25% Tween, sample pad pretreated with 0.05 M Tris pH 7.6, 0.15 M NaCl, 0.25% Triton X-100, assay temperature not stated, commercial protein, single-stranded DNA
T1 sequence (looked up, limits assumed): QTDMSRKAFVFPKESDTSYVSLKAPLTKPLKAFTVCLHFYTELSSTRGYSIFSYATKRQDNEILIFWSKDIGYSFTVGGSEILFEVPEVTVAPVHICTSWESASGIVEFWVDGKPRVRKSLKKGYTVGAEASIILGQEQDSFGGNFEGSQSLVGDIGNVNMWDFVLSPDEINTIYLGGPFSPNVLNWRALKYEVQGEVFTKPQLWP

The chains behind the UniProt entries cited, without tags or fusion partners. Residues count along the entry.
UniProt P05413, 2-133: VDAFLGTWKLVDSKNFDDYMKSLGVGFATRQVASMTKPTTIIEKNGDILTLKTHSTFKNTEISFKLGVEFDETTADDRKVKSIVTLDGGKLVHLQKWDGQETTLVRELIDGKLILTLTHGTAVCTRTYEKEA
UniProt P16860, 103-134: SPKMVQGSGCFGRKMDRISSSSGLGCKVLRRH

[3] = molecular target: B-type natriuretic peptide (BNP) (UniProt P16860); details: 0.1 ng/ml, signal in background range, running buffer PBS with 0.25% Tween, sample pad pretreated with 0.05 M Tris pH 7.6, 0.15 M NaCl, 0.25% Triton X-100, assay temperature not stated, commercial protein, single-stranded DNA
[4] = sandwich with N1, 5'-amine-spacer 18-spacer 18

Measured: binding result

CGCATGCCAAACGTTGCCTCATAGTTCCCTCCCCGTGTCC [secondary cTnI aptamer]
no binding: [1]; [4] | [2]; [4] | [3]; [4]

TTTTTTCGTGCAGTACGCCAACCTTTCTCATGCGCTGCCCCTCTTA [primary cTnI aptamer]
no binding: [1]; sandwich with N2, 5'-biotin | [2]; sandwich with N2, 5'-biotin | [3]; sandwich with N2, 5'-biotin

From paper PMC7477632
